Record: PubChem BioAssay AID504808 (Drosophila RNAi Screening Center, 2011)

Test: 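Chromatin factors that keep E2F targets switched off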 (primary screen)
Cell system: Drosophila S2 cells
Reagents: long dsRNA against Drosophila genes
Detection: 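Dual luciferase plate measurements; E2F-specific signal taken as firefly over Renilla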
Scale: E2F firefly: higher = more E2F reporter activity; Renilla normaliser: higher = more normaliser reporter signal
Call rule: 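a knock-down counted as active when the firefly/Renilla E2F signal rose above 50%, a threshold chosen arbitrarily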
In all, the deposit lists about 21,000 reagents; this is a random part of those that have a named target and a result. In the full data, 18 (0.084%) were called active. 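Raw counts without plate normalisation, one of two replicates; the ratio scores behind the calls were not deposited.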 Entries without a mark were called inactive. A plus sign joins genes that one reagent is predicted to hit. The record does not give: the amount of reagent, the time to read-out.

no.	target gene	amplicon	E2F firefly, rep 1	Renilla normaliser, rep 1
1	Syp	DRSC13444	83666	2923
2	Syp	DRSC15286	61816	3652
3	2mit	DRSC14194	1.22e5	6434
4	2mit	DRSC15224	1.16e5	5802
5	CG12439	DRSC02168	1.52e5	5538
6	CG9014	DRSC01979	1.06e5	4337
7	GstE11	DRSC06926	76014	3838
8	CG9917	DRSC20218	7341	680
9	CG3703	DRSC18172	1.32e5	6249
10	CG3703	DRSC18173	1.25e5	6673
11	CG3703	DRSC18643	1.32e5	5850
12	CG42366	DRSC02760	1.39e5	4432
13	Aasdh	DRSC03467	1.54e5	5317
14	CPT2	DRSC08553	87749	3709
15	CG15073	DRSC06506	1.44e5	5240
16	Jasper	DRSC16352	1733	908
17	CG10804	DRSC17764	1894	864
18	CG10338	DRSC02039	98218	3786
19	CG31769	DRSC01361	1.32e5	5411
20	spdo	DRSC13988	81064	2535
21	Ih	DRSC07445	2852	186
22	CG30349	DRSC06421	1.44e5	4677
23	CG30349	DRSC06839	1.53e5	4474
24	CG13933	DRSC08402	71326	3123
25	CG7133	DRSC11798	69672	3722
26	CG10559	DRSC14255	1.02e5	5115
27	Rbf2	DRSC16816	1.31e5	5706
28	CG15126	DRSC06548	1.40e5	4854
29	Ibf1	DRSC16419	1.27e5	5806
30	Ir7e	DRSC18011	49483	3678
31	CG12376	DRSC06144	2742	201
32	CG17826	DRSC10289	1.16e5	7221
33	CG12121	DRSC17816	1.16e5	5756
34	CG7264	DRSC10793	1.13e5	6522
35	Pop1	DRSC17739	8262	688
36	Cyp6a22	DRSC07382	132	25
37	Rpt2	DRSC16799	55734	4392
38	CG3491	DRSC01934	1.03e5	4426
39	CG42594	DRSC18053	56127	4107
40	CG42594	DRSC18408	1.21e5	6012
41	CG10226	DRSC09715	72782	3618
42	Elp4	DRSC02999	1.32e5	5011
43	CG15207 (retired record)	DRSC19653	1.32e5	5927
44	Cpr72Ec	DRSC10449	83971	3684
45	CG42673	DRSC08989	1.27e5	4267
46	CG42673	DRSC08991	87924	2725
47	CG42673	DRSC10177	1.22e5	7062
48	CG42673	DRSC10264	1.28e5	7168
49	CG42673	DRSC10353	45843	284
50	CG42673	DRSC10354	76582	4201

No new results follow: 5 of the entries above.
no.	target gene	amplicon	E2F firefly, rep 1	Renilla normaliser, rep 1
37	Rpt2	DRSC16799	55734	4392
38	CG3491	DRSC01934	1.03e5	4426
39	CG42594	DRSC18053	56127	4107
40	CG42594	DRSC18408	1.21e5	6012
41	CG10226	DRSC09715	72782	3618

The listing continues.
no.	target gene	amplicon	E2F firefly, rep 1	Renilla normaliser, rep 1
51	CG10927	DRSC06014	67532	3065
52	ImpE1	DRSC11195	96679	3385
53	ImpE1	DRSC11196	86917	3493
54	Acp53C14c	DRSC05626	1.60e5	5561
55	BomBc2	DRSC06502	1.40e5	5518
56	CG14464	DRSC07760	1.10e5	4383
57	CG13557	DRSC04195	1.12e5	4292
58	PEK	DRSC12361	71014	3502
59	CG14965	DRSC08424	76972	3408
60	CG10863	DRSC08145	71063	3117
61	Rbp4	DRSC16818	1.12e5	7149
62	Sec24AB	DRSC06478	2640	221
63	Syt12	DRSC19359	1.39e5	6217
64	Muc4B	DRSC18062	1.27e5	6478
65	Muc4B	DRSC18063	93512	6345
66	mus81	DRSC18180	1.26e5	5444
67	mus81	DRSC18644	95394	5193
68	CG32719	DRSC17525	81291	2767
69	mst	DRSC20582	1.44e5	6654
70	CG34281	DRSC14807	1.12e5	6057
71	CG31467	DRSC16048	1.37e5	6320
72	CG18542 + CG32939	DRSC15342	62498	3337
73	CG34167	DRSC01525	1.40e5	7007
74	CG7408	DRSC10841	1.72e5	9007
75	CG6280	DRSC06972	1.11e5	4317
76	CG3308	DRSC15474	69824	3326
77	kirre	DRSC18785	1.19e5	6693
78	Pph13	DRSC00775	83226	3403
79	COX2 (retired record)	DRSC21276	1.43e5	6805
80	tko	DRSC18844	99443	4769
81	CG33704	DRSC03838	1.20e5	5074
82	CG6277	DRSC16008	1.16e5	6923
83	Ste:CG33238 + Ste:CG33241 + Ste:CG33236 + 11 more	DRSC19004	85118	2286
84	Ste:CG33238 + Ste:CG33241 + Ste:CG33236 + 11 more	DRSC21260	1.43e5	6574
85	beta4GalT7	DRSC14385	1.11e5	6110
86	U2A	DRSC06445	1.03e5	5035
87	whd	DRSC07351	3255	278
88	Ada3	DRSC20321	1.49e5	7221
89	Ada3	DRSC20322	1.71e5	7030
90	hiw	DRSC20338	1.16e5	6689
91	hiw	DRSC20339	1.31e5	6656
92	ClpP	DRSC02806	80532	3235
93	CG33144	DRSC06132	2797	43
94	CG33144	DRSC07024	1.59e5	5564
95	CG9498	DRSC03235	1.43e5	5192
96	cic	DRSC14276	88938	4958
97	cic	DRSC15708	95725	5815
98	cic	DRSC16918	1.34e5	7709
99	cic	DRSC21243	1.38e5	5858
100	bocks	DRSC16489	66263	2941
101	CG33128	DRSC00294	1.68e5	5618
102	CG17111	DRSC15174	1.11e5	6226
103	ppk23	DRSC20110	1.49e5	6621
104	CG12702	DRSC19487	1.30e5	6170
105	ci	DRSC17172	1.18e5	5258
106	CG15919	DRSC06594	48883	3016
107	vls	DRSC02101	89791	4034
